{
  "source": "paper PMC5155426",
  "about": "“Organic Redox Species in Aqueous Flow Batteries: Redox Potentials, Chemical Stability and Solubility” (Scientific Reports, 2016)",
  "assay": "Single cell redox flow battery (RFB) tests",
  "data": [
    {"smiles": "O=C1C=C(O)C(=O)c2ccccc21", "note": "[NQ(1,4)H, 2-hydroxy-1,4-naphtoquinone]", "values": [
      {"measurement": "capacity retention in RFB test", "setting": "200 mM in 1 M KOH on negative side, excess ferrocyanide on positive side (Fig. 6a)", "result": "significant capacity loss after only two cycles"}
    ]},
    {"smiles": "CC1(C)CC(O)CC(C)(C)N1[O]", "note": "[TEMPOL, 4-hydroxy-2,2,6,6-tetramethylpiperidine-1-oxyl]", "values": [
      {"measurement": "capacity retention in RFB test", "setting": "50 mM with AQDS(2,7) in 0.5 M phosphate buffer pH 7, positive side (Fig. 6d)", "result": "significant capacity loss"}
    ]},
    {"smiles": "O=C1C=C(S(=O)(=O)O)c2ccccc2C1=O", "note": "[NQ(1,2)S, 1,2-naphtoquinone-4-sulfonate sodium]", "values": [
      {"measurement": "capacity retention in RFB test", "setting": "200 mM with excess ferrocyanide in 1 M KOH (Fig. 6b)", "result": "significant capacity loss over 90 cycles"}
    ]}
  ]
}
